Data from PMC2821400.
Numbering of substitutions follows the chain as printed. These are yes or no findings as the source states them, for the method shown. Binding seen in cells or lysates may run through a third protein. Some binding calls cover weakened binding; strength is not graded here. Tags and fused reporters may be left off the sequences shown.

Protein sequences, listed by entry. Tags and fused reporters are not part of them.
UniProt Q14247: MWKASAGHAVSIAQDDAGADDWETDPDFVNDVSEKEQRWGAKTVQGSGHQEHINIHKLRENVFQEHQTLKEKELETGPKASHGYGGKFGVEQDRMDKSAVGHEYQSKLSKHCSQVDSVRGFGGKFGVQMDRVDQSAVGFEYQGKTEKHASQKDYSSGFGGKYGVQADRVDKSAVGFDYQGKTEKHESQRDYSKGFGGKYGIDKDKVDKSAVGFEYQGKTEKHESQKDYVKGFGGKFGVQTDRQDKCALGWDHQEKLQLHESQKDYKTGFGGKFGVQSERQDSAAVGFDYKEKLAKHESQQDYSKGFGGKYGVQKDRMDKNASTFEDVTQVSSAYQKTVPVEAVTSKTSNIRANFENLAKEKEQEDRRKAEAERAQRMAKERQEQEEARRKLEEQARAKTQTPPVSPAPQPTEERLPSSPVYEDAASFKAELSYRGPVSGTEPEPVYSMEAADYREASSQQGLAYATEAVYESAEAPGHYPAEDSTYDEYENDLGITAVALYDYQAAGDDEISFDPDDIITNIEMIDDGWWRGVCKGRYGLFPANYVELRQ

Assays:
[1] = target: T1, WT GFP-L-plastin, expressed in MCF-7 cells (human) (UniProt P13796); experiment: co-IP; GFP-nanotrap beads, lysate of PMA-treated MCF-7 cells expressing GFP-L-plastin; 10 mM Tris-HCl pH 7.5, 150 mM NaCl, 0.5 mM EDTA, 30 minutes at 4°C; immunoblot for cortactin
T1 sequence: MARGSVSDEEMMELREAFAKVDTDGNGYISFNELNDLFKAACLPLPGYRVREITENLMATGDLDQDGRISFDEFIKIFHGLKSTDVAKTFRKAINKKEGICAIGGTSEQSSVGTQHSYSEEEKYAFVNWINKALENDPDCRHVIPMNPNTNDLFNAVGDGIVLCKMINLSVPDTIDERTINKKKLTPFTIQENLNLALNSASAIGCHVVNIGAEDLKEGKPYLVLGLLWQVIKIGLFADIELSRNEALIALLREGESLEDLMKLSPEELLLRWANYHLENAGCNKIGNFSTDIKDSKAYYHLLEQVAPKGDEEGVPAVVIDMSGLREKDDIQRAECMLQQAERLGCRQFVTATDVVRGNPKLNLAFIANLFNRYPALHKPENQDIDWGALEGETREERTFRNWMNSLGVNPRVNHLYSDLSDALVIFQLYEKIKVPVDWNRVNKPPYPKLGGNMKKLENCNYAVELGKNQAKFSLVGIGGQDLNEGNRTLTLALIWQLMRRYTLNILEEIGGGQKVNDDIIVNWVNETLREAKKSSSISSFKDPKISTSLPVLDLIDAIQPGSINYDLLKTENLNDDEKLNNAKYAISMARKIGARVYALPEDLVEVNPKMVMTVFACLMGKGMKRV

[2] = target: T1, WT GFP-L-plastin, expressed in MCF-7 cells (human); experiment: co-IP; data not shown: GFP-nanotrap co-immunoprecipitation from MCF-7 cells with S5/A GFP-L-plastin, and with WT GFP-L-plastin from cells not treated with PMA; seen in some experiments
[3] = target: T2, phosphorylation-defective S5/A GFP-L-plastin, expressed in MCF-7 cells (human) (UniProt P13796); experiment: as above
T2 sequence: T1 sequence with S5A

[4] = target: T3, recombinant unphosphorylated GST-L-plastin (human) (UniProt P13796); experiment: pull-down; GST-L-plastin (20 µg) immobilised on glutathione-sepharose 4B beads, incubated overnight at 4°C with untreated MCF-7 cell extracts (200 µg); washed with cold PBS; immunoblot for cortactin; only the target purified
T3 sequence: T1 sequence

Measured: binding

cortactin (from UniProt Q14247 1-550)
binds: all assays above
